Whole data set: some 33,000 sequences, median “E-score (-0.5 to 0.5)” near -0.0014, cut for the highest 2% near 0.25. Some of the results follow.
target: T1, Cad1 (UniProt P24813); assay: PBM E-score (8-mer binding enrichment) (E-score (-0.5 to 0.5)); higher = stronger / more preferred TF binding; details: protein concentration: 100 nM; construct: GST-full length
T1 sequence: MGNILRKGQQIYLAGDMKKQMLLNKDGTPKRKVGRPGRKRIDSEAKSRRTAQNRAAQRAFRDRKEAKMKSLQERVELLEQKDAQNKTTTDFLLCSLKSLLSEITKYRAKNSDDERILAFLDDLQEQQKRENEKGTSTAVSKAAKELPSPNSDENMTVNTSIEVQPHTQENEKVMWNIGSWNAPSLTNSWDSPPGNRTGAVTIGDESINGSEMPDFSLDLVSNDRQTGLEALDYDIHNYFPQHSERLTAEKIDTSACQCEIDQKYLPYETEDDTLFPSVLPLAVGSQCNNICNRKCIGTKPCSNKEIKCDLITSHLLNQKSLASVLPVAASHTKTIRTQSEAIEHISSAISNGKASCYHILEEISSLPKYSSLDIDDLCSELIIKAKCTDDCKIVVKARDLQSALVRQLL
Procedure, shortened: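 Yeast transcription factors carrying a GST tag, as full-length proteins or DNA-binding domains, were produced by PURExpress in vitro transcription/translation. About 100-200 nM protein was applied to universal all-10-mer Agilent arrays, double-stranded by primer extension on fresh or once-stripped slides. Bound protein was detected with fluorescent anti-GST, and scans were normalised with masliner. The Universal PBM Analysis Suite gave each ungapped eight-base word, pooled with its reverse complement, an E-score, a modified Wilcoxon-Mann-Whitney statistic.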

| Sequence | PBM E-score |
| --- | --- |
| CTTCAGGC | -0.219 |
| CCCAGGCC | -0.0863 |
| AGCTCGAC | 0.149 |
| ATTACCTA | 0.222 |
| AGTTATAG | -0.0744 |
| ATCTTCCA | -0.21 |
| CGGTTGTC | 0.0623 |
| GCGACTAA | 0.0968 |
| ATATCTAC | 0.135 |
| GCCTGTAA | -0.0658 |
| CTTGGCCA | 0.0716 |
| ACGTTTGA | 0.0358 |
| CTTGGCAC | -0.0775 |
| GCCAGAAC | -0.0653 |
| CGGGTAGC | -0.128 |
| ATATAGCC | 0.162 |
| GAAAGAAC | 0.0564 |
| ACGGGGAC | -0.109 |
| CGTTGACA | 0.0657 |
| AGCTTTAC | -0.0668 |
| AGGAAGAA | -0.161 |
| AGATAACC | 0.00353 |
| ACTACCAA | -0.102 |
| ACCGCGGA | 0.207 |
| GCCCAGCA | -0.0353 |

Quoted at random: 5 records from the list, in no set order.

| Sequence | PBM E-score |
| --- | --- |
| ACCGCGGA | 0.207 |
| CGTTGACA | 0.0657 |
| CTTGGCCA | 0.0716 |
| GCCTGTAA | -0.0658 |
| CTTCAGGC | -0.219 |

The list goes on:

| Sequence | PBM E-score |
| --- | --- |
| AGTGAGAG | -0.0659 |
| CAGAGACG | 0.0945 |
| ATGATAAT | 0.1 |
| ATGCTCGA | 0.0495 |
| CCGTCCCA | -0.08 |
| CACAAGTC | -0.206 |
| GGCCTGGA | -0.276 |
| AAACATGA | 0.0892 |
| TCTCTTAA | 0.148 |
| ACCGGTAG | -0.176 |
| ACGGATAC | 0.219 |
| CTTTGACA | 0.0888 |
| CACCAGCC | -0.066 |
| CTTCGCAA | -0.0125 |
| GGGCCATA | -0.0783 |
| TATAGCGA | 0.0154 |
| GCTCATAA | 0.0567 |
| ATCAGGTC | -0.113 |
| AATAATCG | 0.147 |
| AGTGTCCC | -0.0507 |
| GATGGGTA | 0.0269 |
| AAAGTGGC | -0.081 |
| CGCTCCGA | 0.142 |
| ACGCTTCC | 0.0863 |
| ACAATGGA | 0.182 |

| Sequence | PBM E-score |
| --- | --- |
| CGACTGAA | -0.0303 |
| CTGTACTC | -0.0985 |
| ACCCCCCA | -0.422 |
| AATCCGAC | 0.00376 |
| CGTACTAA | 0.0895 |
| AGTGGGCG | 0.0121 |
| GAAAGATA | 0.195 |
| GGTGGCCA | -0.0726 |
| TCTATACA | -0.0994 |
| CAAGCGTG | 0.0147 |
| GACTAAAC | -0.0687 |
| ATCAGATA | 0.0774 |
| CGGATAGA | 0.192 |
| CCCACAGA | -0.143 |
| GTGGTGGA | -0.17 |
| AGACTAGG | -0.187 |
| ATCTTAGG | -0.238 |
| AACCTCGT | -0.0552 |
| GGTACCTA | 0.0442 |
| CGATTAGA | 0.0495 |
| GCCATTCC | -0.268 |
| ATTCTGTG | 0.204 |
| GGCTTCTA | -0.026 |
| ACACCACC | -0.171 |
| CCTTCATC | -0.157 |

| Sequence | PBM E-score |
| --- | --- |
| GGTATAAA | -0.0675 |
| GAATGCTA | -0.063 |
| GACCGCTA | -0.0151 |
| TAACATAA | 0.287 |
| ACTACTTC | -0.0576 |
| CAGTCTAC | -0.194 |
| CGGCAACC | 0.0827 |
| AGGGAAAT | 0.0436 |
| AGGCGCAG | -0.273 |
| CGCTATGC | 0.00289 |
| GATATATA | 0.333 |
| TGCTCTAA | -0.0091 |
| CAAAACCG | 0.0302 |
| GATCGAGA | 0.0272 |
| CGACACAC | 0.177 |
| ATGCAGCC | 0.162 |
| AGACAGAG | -0.169 |
| CGGAATGA | 0.124 |
| AAGCGAGG | -0.0687 |
| ATACGGTC | -0.0195 |
| ATTGCGCA | 0.103 |
| ATTGGTTC | 0.2 |
| CGAAGCTC | -0.231 |
| TACCACGA | -0.00517 |
| GGACTCGA | -0.177 |

| Sequence | PBM E-score |
| --- | --- |
| CTAACCGA | 0.00683 |
| CTCTCTGA | -0.0154 |
| CATTGTTA | 0.0137 |
| ATCTTGTC | -0.00385 |
| CCTTCGCG | -0.0493 |
| CGCATGGA | -0.0928 |
| CATTATGG | -0.0774 |
| GGAACCCA | -0.0053 |
| CATTCCAG | -0.144 |
| ATGTGGCC | -0.0491 |
| AGTGTGGC | 0.119 |
| AGAAGGAG | -0.228 |
| ATGGCCGG | -0.0669 |
| CCCGCTCA | -0.116 |
| GAGTGATA | 0.17 |
| AACGCCAA | 0.00194 |
| AGCAATCG | 0.27 |
| CAATTGGG | -0.0709 |
| GACTGGCA | -0.152 |
| ACCCAATC | -0.0256 |
| AGAACCAA | -0.131 |
| AGGATTGA | 0.101 |
| CTGGGCGC | -0.141 |
| ACTCACAC | -0.0995 |
| AACAGAGG | -0.145 |

An excerpt of these results, bar-delimited:
Sequence | PBM E-score
AGCAATCG | 0.27
ACTCACAC | -0.0995

Continued:

| Sequence | PBM E-score |
| --- | --- |
| GTCCAAAC | -0.263 |
| CGTACGTC | -0.112 |
| GTACCATA | -0.158 |
| AGAGGTTG | -0.229 |
| AAATAGAC | 0.0409 |
| AAGCAACA | 0.0972 |
| CAGGGTGC | -0.3 |
| CCGTCCGC | -0.116 |
| GATGAGAA | 0.108 |
| ATAAAGCG | 0.149 |
| AGTTCGCG | 0.00326 |
| GGGCCGAA | -0.0979 |
| AAACTTGT | 0.112 |
| CGATCTCA | 0.0727 |
| ATCCGCAT | 0.105 |
| CTAGAACC | -0.136 |
| CATGAAGC | -0.0276 |
| AACGCCCG | 0.059 |
| ACATTGCA | 0.00028 |
| ACGTTCTG | 0.041 |
| CCCCGAGG | -0.225 |
| CGGTTAGA | 0.058 |
| GCTCGAAC | 0.123 |
| AGTCAAGG | -0.0898 |
| ACACTTAC | 0.108 |

| Sequence | PBM E-score |
| --- | --- |
| CCAGGACA | 0.0769 |
| TATGTTGA | 0.0773 |
| GACGTCCA | 0.0674 |
| ACGCAATA | 0.184 |
| GATGGTCC | -0.119 |
| GGCTCCAC | -0.182 |
| GCGAGGAA | 0.0172 |
| ATTTGTAA | 0.411 |
| CAGCCCTA | 0.147 |
| AATATATA | 0.244 |
| CTAACAGC | -0.0641 |
| TCGTCCCA | 0.0795 |
| ATAGCCGA | 0.0529 |
| AACGCAGT | -0.0676 |
| GGGATCTA | -0.138 |
| GGGTTCAC | 0.0111 |
| GAGTATCC | -0.0156 |
| ATGCTGTA | 0.114 |
| CATAGACC | -0.0068 |
| GAGTATCA | -0.045 |
| TCGCATCA | 0.0674 |
| CAGTAGTA | 0.00735 |

— the supplement of paper PMC3334620
